Drawing on a protein production outcome set (Wang et al. 2014), this text covers protein production for two sequences.

This data set is described as follows: label from the status in PepcDB records.

On to “MTSVTSIPPAKTMSAFASLLLGGAVLGAVTVQGWLPLASRAQSISAPSGLSRQSFVAAAVERSGPAVVTLETARTVTSSGMTGLPKGLLMDPLFRHFFGVPGASAPRSRVQRGQGSGVIFDAEGLLLTNAHVVEGADTLQVELTDGRSVEAKVIGKDSLTDLAVVRLEGKGPWPIAALGDSDRLKVGDWAIAVGNPYGLENTVTMGIISNLNRNVAQLGISGKRLDLIQTDAAINPGNSGGPLLNAEGEVIGINTLVRSGPGAGLGFAIPINRARSIAQQLVNKGRASHPVIGVGLAAGPLGPVIRSVQPGAPAAGAGLKPGDVITAINGVATASPTQVVATVERNGVGRQLTLSIKRGETTLTVSLTPMDLAA”, for which the protein production result is “failed”.
Then “SSASFTKEQADAIRRIRNSKDSWDMLGVKPGASRDEVNKAYRKLAVLLHPDKCVAPGSEDAFKAVVNARTALLKNIK”, with “not failed”.
